In the test the target is T1, Lyp1 (Lyp1-YPet) (Saccharomyces cerevisiae, UniProt P32487).
T1 construct: full-length, YPet fluorescent protein fusion, plasmid-expressed in S. cerevisiae, assayed in whole cells
T1 sequence (P32487 1-611): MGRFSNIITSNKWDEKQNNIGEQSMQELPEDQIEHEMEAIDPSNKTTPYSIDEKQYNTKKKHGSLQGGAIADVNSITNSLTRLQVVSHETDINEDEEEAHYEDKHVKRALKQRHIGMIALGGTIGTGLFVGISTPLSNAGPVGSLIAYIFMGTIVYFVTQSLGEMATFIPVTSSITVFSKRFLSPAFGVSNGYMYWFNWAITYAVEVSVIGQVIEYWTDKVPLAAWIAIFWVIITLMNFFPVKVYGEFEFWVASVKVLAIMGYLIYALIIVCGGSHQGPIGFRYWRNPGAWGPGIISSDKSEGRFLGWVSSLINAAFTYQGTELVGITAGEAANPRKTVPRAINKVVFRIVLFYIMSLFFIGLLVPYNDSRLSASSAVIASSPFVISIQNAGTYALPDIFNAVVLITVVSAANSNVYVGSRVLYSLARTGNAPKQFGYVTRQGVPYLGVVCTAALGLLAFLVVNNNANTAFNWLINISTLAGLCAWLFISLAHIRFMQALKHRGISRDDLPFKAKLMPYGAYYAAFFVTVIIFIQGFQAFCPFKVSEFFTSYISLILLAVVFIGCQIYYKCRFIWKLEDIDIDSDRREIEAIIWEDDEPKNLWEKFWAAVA
Kind of test: competition with […]-lysine uptake in S. cerevisiae cells. Format: cell-based.

Turning to `NCCC[C@H](N)C(=O)O` [ornithine], the “% reduction of lysine transport at 100 mM” value is above 80%.

Source of the values: paper PMC7687128, “Extracellular loops matter – subcellular location and function of the lysine transporter Lyp1 from Saccharomyces cerevisiae” (The Febs Journal, 2020).
